For one substance, binding results are on record in paper PMC12631106.

Amino acid sequences for entries named in this document (tags omitted).
UniProt P45974: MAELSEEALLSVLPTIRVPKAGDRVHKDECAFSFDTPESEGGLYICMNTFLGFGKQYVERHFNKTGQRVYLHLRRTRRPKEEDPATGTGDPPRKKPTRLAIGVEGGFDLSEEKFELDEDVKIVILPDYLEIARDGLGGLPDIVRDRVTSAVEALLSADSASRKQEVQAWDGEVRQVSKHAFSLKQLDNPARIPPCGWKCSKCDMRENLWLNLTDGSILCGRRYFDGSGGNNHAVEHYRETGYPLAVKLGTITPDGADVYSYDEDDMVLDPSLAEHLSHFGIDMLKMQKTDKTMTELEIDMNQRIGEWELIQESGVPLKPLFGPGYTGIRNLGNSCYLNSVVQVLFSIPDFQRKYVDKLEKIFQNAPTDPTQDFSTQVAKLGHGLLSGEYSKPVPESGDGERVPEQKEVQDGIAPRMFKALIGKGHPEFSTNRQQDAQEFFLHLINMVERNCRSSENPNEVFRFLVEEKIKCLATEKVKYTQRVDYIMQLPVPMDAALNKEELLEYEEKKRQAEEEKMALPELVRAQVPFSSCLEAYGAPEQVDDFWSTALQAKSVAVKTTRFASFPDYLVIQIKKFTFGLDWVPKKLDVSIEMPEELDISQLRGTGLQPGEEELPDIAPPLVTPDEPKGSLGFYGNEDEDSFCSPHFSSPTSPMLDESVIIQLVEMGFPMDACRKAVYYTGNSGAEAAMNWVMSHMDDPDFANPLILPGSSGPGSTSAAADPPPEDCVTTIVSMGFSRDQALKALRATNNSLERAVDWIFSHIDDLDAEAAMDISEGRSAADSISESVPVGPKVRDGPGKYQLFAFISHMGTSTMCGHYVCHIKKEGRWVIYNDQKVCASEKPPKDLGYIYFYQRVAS
UniProt P40763: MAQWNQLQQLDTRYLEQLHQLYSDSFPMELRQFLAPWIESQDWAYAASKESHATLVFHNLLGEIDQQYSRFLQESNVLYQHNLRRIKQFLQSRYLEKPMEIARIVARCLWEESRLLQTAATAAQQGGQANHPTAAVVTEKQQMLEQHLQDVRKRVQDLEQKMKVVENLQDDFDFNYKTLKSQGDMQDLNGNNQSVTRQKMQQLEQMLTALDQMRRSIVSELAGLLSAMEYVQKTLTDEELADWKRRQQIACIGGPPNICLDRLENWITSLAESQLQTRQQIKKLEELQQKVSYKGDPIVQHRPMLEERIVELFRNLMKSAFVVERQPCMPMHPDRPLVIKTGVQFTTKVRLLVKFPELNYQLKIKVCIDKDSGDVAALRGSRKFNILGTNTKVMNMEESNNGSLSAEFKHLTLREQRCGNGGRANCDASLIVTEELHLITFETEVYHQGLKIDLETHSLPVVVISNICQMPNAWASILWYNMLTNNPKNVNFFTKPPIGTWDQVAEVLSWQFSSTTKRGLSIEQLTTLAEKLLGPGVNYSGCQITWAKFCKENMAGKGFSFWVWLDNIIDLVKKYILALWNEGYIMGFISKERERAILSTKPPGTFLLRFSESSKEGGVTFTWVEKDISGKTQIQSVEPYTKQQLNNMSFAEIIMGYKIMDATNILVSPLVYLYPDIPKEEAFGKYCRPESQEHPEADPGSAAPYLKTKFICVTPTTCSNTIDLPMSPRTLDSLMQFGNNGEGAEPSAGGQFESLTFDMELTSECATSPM

No constants are given. Whether binding was seen depends on the method and setting. Binding seen in cells or lysates may run through a third protein. A yes stands for co-enrichment or nearness to the bait. Other partners may have been found.

In the experiment the target is ubiquitin specific peptidase 5 (USP5) (human (endogenous in HCT116)) (UniProt P45974). The experiment can be described thus: affinity purification with mass spectrometry; HCT116 total protein, IP with anti-USP5 or anti-IgG antibody and protein A + G magnetic beads; SDS-PAGE, silver staining, anti-USP5-specific band cut for LC-MS/MS.

On to “signal transducer and activator of transcription 3 (STAT3) (from UniProt P40763 1-770)”, for which the binding entry was “binds”.
